Measured values reported in article PMC12040169 (PLOS Biology, 2025).
The list shows a part of the results.

Test system: T1, CTL2-GFP (C. trachomatis L2/434/Bu, GFP-expressing)
T1 construct: L2/434/Bu, GFP-expressing
Set-up: species or system HeLa; Intracellular C. trachomatis growth in HeLa cells, bulk GFP fluorescence relative to DMSO
Conditions: bulk GFP, single well; 28.5 h, 10 µM; inhibitor

| SMILES | % of control remaining [%] |
| --- | --- |
| NC(=O)c1ccc(NC(=O)N2CCCCC2CO)cc1 (stereo not shown) [CBK156185] | 115.909 |
| Cn1ccnc1C(NC(=O)c1cccnc1)c1ccc(F)c(F)c1 (stereo not shown) [CBK283807] | 150.21 |
| Cc1nc(-c2cccnc2)[nH]c(=O)c1CC(=O)N(C)C1CCCC1 [CBK304907] | 113.211 |
| Cc1nc(-c2ccccc2)sc1CNC(=O)COc1ccc(F)cc1 [CBK092350] | 100 |
| CC(Cc1ccccn1)N(C)C(=O)c1cccc(N2CCCC2=O)c1 (stereo not shown) [CBK282153] | 96.5436 |
| CO[C@@H]1CO[C@H]2[C@@H]1OC[C@@H]2Nc1nccc(-c2cccc(C#N)c2)n1 [CBK289532] | 129.136 |
| Cc1noc(NS(=O)(=O)c2ccc(NC(=O)COc3cccc(Br)c3)cc2)c1C [CBK264086] | 16.0181 |
| O=C1CC(C(=O)Nc2c(Cl)cccc2Cl)C2(CCCCC2)O1 (stereo not shown) [CBK058445] | 145.129 |
| CC1=C[C@@H](CNC(=O)NC(C)C)[C@H](C(C)C)C[C@H]1CC(=O)N1CCN(C)CC1 [CBK289047] | 104.257 |
| Cc1noc(C)c1S(=O)(=O)Nc1nc(=O)[nH]cc1F [CBK067569] | 120.151 |
| CSCC[C@@H]1CN2CCC[C@H]2CN1Cc1cnc(C)n1C [CBK285423] | 95.8259 |
| O=C(c1ccco1)N1CCCC(n2cnc3cc(F)ccc32)C1 (stereo not shown) [CBK284475] | 128.07 |
| CCn1ccc(NC(=O)CC2CCN(Cc3cccc(C(F)(F)F)c3)CC2)n1 [CBK285997] | 97.7651 |
| O=C(CC1CCN(Cc2cccc(C(F)(F)F)c2)CC1)NCc1ccc2[nH]c(=O)[nH]c2c1 [CBK285954] | 107.53 |
| O=C(Nc1ccc(S(=O)(=O)N2CCCCCC2)cc1)c1ccc(NS(=O)(=O)c2ccccc2)cc1 [CBK268018] | 117.685 |
| Cn1cnc2cc(C(=O)N3CC(C(=O)N4CCN(c5ccccc5)CC4)C3)ccc21 [CBK285664] | 132.345 |
| CCOC(=O)c1c(NC(C)=O)nc2n1CCS2 [CBK023488] | 159.098 |
| Cc1cccc(CN2CC[C@H]3[C@@H](C2)[C@H](c2ccsc2)CN3C(=O)c2ccccc2)c1 [CBK285619] | 123.729 |
| CC(C)Oc1ncc(C(=O)NCc2cccc(NC(N)=O)c2)cc1Cl [CBK306327] | 129.393 |
| O=C(O)C(Cc1ccccc1)N1C(=O)/C(=C/c2cccc([N+](=O)[O-])c2)SC1=S (stereo not shown) [CBK263078] | 109.73 |
| CCN(CC)CC1CCCCC1=O (stereo not shown) [CBK023965G] | 125.415 |
| Cc1nc(C)c(-c2csc(Nc3ccc(O)cc3C)n2)s1 [CBK267346] | 161.064 |
| Cn1c(=O)n(CC(=O)NC2CC2)c2cccnc21 [CBK104297] | 164.888 |
| Cc1ccccc1-c1ccc(C(=O)NCCc2ccc(S(N)(=O)=O)cc2)c(NCc2cccnc2)n1 [CBK076116] | 100 |
| CN(CC(O)CN1CCOCC1)C(=O)c1cc2sccc2[nH]1 (stereo not shown) [CBK306437] | 111.853 |

Arranged by count of non-hydrogen atoms (smallest number first): 3 of the compounds above

| SMILES | % of control remaining [%] |
| --- | --- |
| O=C(c1ccco1)N1CCCC(n2cnc3cc(F)ccc32)C1 (stereo not shown) [CBK284475] | 128.07 |
| Cc1nc(-c2ccccc2)sc1CNC(=O)COc1ccc(F)cc1 [CBK092350] | 100 |
| Cn1cnc2cc(C(=O)N3CC(C(=O)N4CCN(c5ccccc5)CC4)C3)ccc21 [CBK285664] | 132.345 |

(further entries)

| SMILES | % of control remaining [%] |
| --- | --- |
| Cc1ncccc1C(=O)NC(c1ccc(F)c(F)c1)c1nccn1C (stereo not shown) [CBK283809] | 127.634 |
| O=C(Cn1c(=O)[nH]c2c(oc3ccccc32)c1=O)Nc1ccccc1 [CBK287818] | 150.522 |
| O=C([C@H]1O[C@H](CCN2CCN(c3ccccn3)CC2)CC[C@@H]1O)N1CCCC1 [CBK288730] | 121.489 |
| CCOc1ccc(OCCC#N)cc1 [CBK015880] | 154.753 |
| CC(C)(C)NCC(O)COc1c(F)cc(Br)cc1F (stereo not shown) [CBK020879C] | 102.226 |
| Cc1cc(NC(=O)c2ccc3c(c2)C(=O)N(CC2CCCO2)C3=O)no1 (stereo not shown) [CBK072998] | 108.064 |
| CC(=O)NC(CCC(N)=O)C(=O)N1CC2(CCCC2)c2c(F)cccc21 (stereo not shown) [CBK306412] | 135.066 |
| Cc1cc(C)c(Oc2nc(=O)n([C@H]3C[C@@H](O)[C@@H](CO)O3)cc2F)c(C)c1 [CBK201184] | 154.385 |
| CCOC(=O)c1ccc(Nc2nnc3nc(C)cc(C)n23)cc1 [CBK267600] | 126.265 |
| CSc1ncc(Cl)c(C(=O)Nc2ccc(S(=O)(=O)N3CCC(Cc4ccccc4)CC3)cc2)n1 [CBK268870] | 115.609 |
| COCc1cc(C)nc2sc(C(N)=O)c(N)c12 [CBK018149] | 81.3675 |
| C[C@@H]1C[C@H](Nc2ccccc2)c2ccccc2N1C(=O)CCC(=O)O [CBK286820] | 131.923 |
| CCn1c(=O)[nH]c2cc(C(=O)NCCc3ccccc3)ccc2c1=O [CBK265773] | 148.354 |
| CCc1cc2c(=O)c(-c3nc4ccccc4n3C)c(C)oc2c(CN2CCOCC2)c1O [CBK262124] | 112.959 |
| O=C(O)c1cccc(NS(=O)(=O)c2cc(C(F)(F)F)cc(C(F)(F)F)c2)c1 [CBK155725] | 101.796 |
| Cc1nc[nH]c1CN1CCCN(S(=O)(=O)c2ccc(C(F)(F)F)cc2Cl)CC1 [CBK063035] | 71.5193 |
| O=C(CCC1CCCO1)N1CCCC(COc2ccc(F)cc2)C1 (stereo not shown) [CBK282031] | 174.943 |
| CN1CCCN(c2nc(-c3cccs3)cn3ccnc23)CC1 [CBK066652] | 122.933 |
| O=C(/C=C/c1ccccc1)NC(=S)Nc1cccc(-c2nc3ncccc3o2)c1 [CBK263742] | 123.55 |
| Clc1ccc(CNc2ncc(-c3ccc(N4CCOCC4)cc3)n3ccnc23)cc1Cl [CBK091229] | 120.438 |
| CC1CCN(C(=O)C2CC(=O)N(c3ccc(C(=O)O)cc3)C2)CC1 (stereo not shown) [CBK286568] | 100.057 |
| CCN(CC)C(=O)CN(CCc1ccc(OC)c(OC)c1)C(=O)NCc1cc(C)on1 [CBK160581] | 111.635 |
| CCOc1cc(C(O)c2nnc(-c3ccccc3)o2)ccc1OCC(C)C (stereo not shown) [CBK132385] | 114.431 |
| O=C1c2cccc([N+](=O)[O-])c2C(=O)N1c1cc(Cl)cc(Cl)c1 [CBK115326] | 96.7117 |
